The shares of active, inactive and inconclusive entries below differ from those in the screen. Potencies beside an inconclusive call are fits to weak or partial responses and may not hold up. More than one record can exist for a structure, and the calls need not agree. Calls of active or inactive are those of the source. Rule for the calls: active = hit-call score of the fitted dose curve at least 0.9, where 1 is the maximum; inconclusive = response in the unintended direction; inactive = score below 0.9.
Tested on: not listed separately
Test: ArunA_NOG_NucleusCount: ArunA Biomedical's Neurite Outgrowth (NOG) Assay for Nucleus Count (AID 2283756)
Outline: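 Viable neuron count, from Hoechst nuclei passing size and intensity gates, imaged at 20x on differentiated H9-derived human neurons. Exposure lasted 48 h from seeding; activity was scored relative to DMSO.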

Chains of the proteins cited; added tags and fusions are not shown.
UniProt P08659, whole entry, looked up: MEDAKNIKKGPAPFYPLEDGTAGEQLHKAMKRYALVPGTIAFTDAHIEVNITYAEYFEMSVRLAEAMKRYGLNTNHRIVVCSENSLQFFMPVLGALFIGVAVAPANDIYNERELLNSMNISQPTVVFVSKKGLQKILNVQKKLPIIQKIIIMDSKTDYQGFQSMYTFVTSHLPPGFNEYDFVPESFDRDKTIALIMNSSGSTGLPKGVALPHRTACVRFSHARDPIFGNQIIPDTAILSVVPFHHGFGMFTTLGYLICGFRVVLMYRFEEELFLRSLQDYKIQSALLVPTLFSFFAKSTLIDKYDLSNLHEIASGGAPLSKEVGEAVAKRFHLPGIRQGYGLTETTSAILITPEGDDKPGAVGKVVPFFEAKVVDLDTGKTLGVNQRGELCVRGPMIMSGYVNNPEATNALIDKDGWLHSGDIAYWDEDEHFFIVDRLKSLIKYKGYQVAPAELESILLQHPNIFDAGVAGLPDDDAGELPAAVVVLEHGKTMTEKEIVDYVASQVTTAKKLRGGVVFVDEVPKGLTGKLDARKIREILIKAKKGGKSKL

**Q.** With `Oc1ccc(C(c2ccc(O)cc2)(C(F)(F)F)C(F)(F)F)cc1` as the compound, how does the AC50 read?
**A.** inconclusive: 50000 nM

**Q.** Which AC50 does the source give for `ClCC(Cl)CCl` here?
**A.** inconclusive: 120 nM

**Q.** Which AC50 does the source give for `O=C(O)C1C(C(=O)O)C2(Cl)C(Cl)=C(Cl)C1(Cl)C2(Cl)Cl` (stereo unspecified) here?
**A.** inconclusive: 120 nM

Tested on: not listed separately
Test: ArunA_NOG_NeuriteLength: ArunA Biomedical's Neurite Outgrowth (NOG) Assay for Neurite Length (AID 2283757)
Outline: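 Total neurite length per neuron, from traced βIII-tubulin-labelled processes longer than 10 um on viable Hoechst-gated cells, was scored as decrease from DMSO. Cells were hESC (H9)-derived neurons given 48 h chemical exposure immediately after seeding.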

**Q.** Which AC50 does the source give for `Cc1ccc(N)cc1N` here?
**A.** inconclusive: 50000 nM

**Q.** Which AC50 does the source give for `CO[C@@H]1[C@H](OC(=O)NC(=O)CCl)CC[C@]2(CO2)[C@H]1[C@@]1(C)O[C@@H]1CC=C(C)C` here?
**A.** inconclusive: 500 nM

**Q.** And the outcome?
**A.** inactive

**Q.** With `CC(C)(C)c1cc(O)ccc1O` as the compound, how does the outcome read?
**A.** inactive

**Q.** For `Oc1ccc(C(c2ccc(O)cc2)(C(F)(F)F)C(F)(F)F)cc1`, which AC50 is on record?
**A.** inconclusive: 2500 nM

**Q.** Which AC50 does the source give for `COc1ccc(-c2ccccc2)cc1NNC(=O)OC(C)C` here?
**A.** inconclusive: 500 nM

**Q.** With `ClCC(Cl)CCl` as the compound, how does the AC50 read?
**A.** inconclusive: 7830 nM

**Q.** For `ClC1(Cl)C2(Cl)C3(Cl)C4(Cl)C(Cl)(Cl)C5(Cl)C3(Cl)C1(Cl)C5(Cl)C24Cl` (stereo unspecified), which AC50 is on record?
**A.** inconclusive: 500 nM

**Q.** Which outcome does the source give for `Oc1ccc2ccc3cccc4ccc1c2c34` here?
**A.** inactive

**Q.** For `CCCCC(CC)COP(=O)(Oc1ccccc1)Oc1ccccc1` (stereo unspecified), which AC50 is on record?
**A.** inconclusive: 5000 nM

**Q.** For `O=[N+]([O-])c1cc(C(F)(F)F)c(Cl)c([N+](=O)[O-])c1Nc1ncc(C(F)(F)F)cc1Cl`, which AC50 is on record?
**A.** inconclusive: 224 nM

**Q.** With `CC(C)(C)c1ccc(CSc2cnn(C(C)(C)C)c(=O)c2Cl)cc1` as the compound, how does the AC50 read?
**A.** inconclusive: 500 nM

**Q.** For `N#Cc1nn(-c2c(Cl)cc(C(F)(F)F)cc2Cl)c(N)c1S(=O)C(F)(F)F` (stereo unspecified), which AC50 is on record?
**A.** active: 31800 nM

**Q.** For `Clc1ccc(Cl)c(Cl)c1`, which AC50 is on record?
**A.** inconclusive: 50000 nM

Tested on: not listed separately
Test: ArunA_NOG_NeuritesPerNeuron: ArunA Biomedical's Neurite Outgrowth (NOG) Assay for Neurites Per Neuron (AID 2283758)
Outline: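 Differentiated human H9-derived neurons exposed to chemicals for 48 h from seeding, then stained with Hoechst and βIII-tubulin/DyLight 488. Automated imaging counted neurites (processes >10 um) per valid neuron; loss of signal versus DMSO scored.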

**Q.** With `CO[C@@H]1[C@H](OC(=O)NC(=O)CCl)CC[C@]2(CO2)[C@H]1[C@@]1(C)O[C@@H]1CC=C(C)C` as the compound, how does the AC50 read?
**A.** inconclusive: 500 nM

**Q.** With `CC(C)(C)c1cc(O)ccc1O` as the compound, how does the outcome read?
**A.** inactive

**Q.** For `Oc1ccc(C(c2ccc(O)cc2)(C(F)(F)F)C(F)(F)F)cc1`, which AC50 is on record?
**A.** inconclusive: 1770 nM

**Q.** For `COc1ccc(-c2ccccc2)cc1NNC(=O)OC(C)C`, which AC50 is on record?
**A.** inconclusive: 500 nM

**Q.** For `ClCC(Cl)CCl`, which AC50 is on record?
**A.** inconclusive: 2480 nM

**Q.** Which outcome does the source give for `ClC1(Cl)C2(Cl)C3(Cl)C4(Cl)C(Cl)(Cl)C5(Cl)C3(Cl)C1(Cl)C5(Cl)C24Cl` (stereo unspecified) here?
**A.** inactive

**Q.** For `Oc1cc(Cl)ccc1Oc1ccc(Cl)cc1Cl`, which outcome is on record?
**A.** inactive

**Q.** With `Oc1ccc2ccc3cccc4ccc1c2c34` as the compound, how does the outcome read?
**A.** inactive

**Q.** With `CCCCC(CC)COP(=O)(Oc1ccccc1)Oc1ccccc1` (stereo unspecified) as the compound, how does the AC50 read?
**A.** inconclusive: 5000 nM

**Q.** Which outcome does the source give for `O=C(O)C1C(C(=O)O)C2(Cl)C(Cl)=C(Cl)C1(Cl)C2(Cl)Cl` (stereo unspecified) here?
**A.** inactive

**Q.** Which AC50 does the source give for `O=[N+]([O-])c1cc(C(F)(F)F)c(Cl)c([N+](=O)[O-])c1Nc1ncc(C(F)(F)F)cc1Cl` here?
**A.** inconclusive: 500 nM

**Q.** With `CC(C)(C)c1ccc(CSc2cnn(C(C)(C)C)c(=O)c2Cl)cc1` as the compound, how does the AC50 read?
**A.** inconclusive: 500 nM

Tested on: not listed separately
Test: ArunA_NOG_BranchPointsPerNeurite: ArunA Biomedical's Neurite Outgrowth (NOG) Assay for Branch Points Per Neurite (AID 2283759)
Outline: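 Automated image analysis traced neurites (processes >10 um) from valid cell bodies after Hoechst and βIII-tubulin staining. hNN cells from H9 embryonic stem cells, 48 h exposure. Fitted bidirectionally against DMSO.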

**Q.** Which AC50 does the source give for `CO[C@@H]1[C@H](OC(=O)NC(=O)CCl)CC[C@]2(CO2)[C@H]1[C@@]1(C)O[C@@H]1CC=C(C)C` here?
**A.** inconclusive: 1.17 nM

**Q.** What about the outcome of the same compound?
**A.** inactive

**Q.** For `CC(C)(C)c1cc(O)ccc1O`, which AC50 is on record?
**A.** inconclusive: 818 nM

**Q.** For `Oc1ccc(C(c2ccc(O)cc2)(C(F)(F)F)C(F)(F)F)cc1`, which AC50 is on record?
**A.** inconclusive: 50000 nM

**Q.** Which AC50 does the source give for `COc1ccc(-c2ccccc2)cc1NNC(=O)OC(C)C` here?
**A.** inconclusive: 500 nM

**Q.** With `ClC1(Cl)C2(Cl)C3(Cl)C4(Cl)C(Cl)(Cl)C5(Cl)C3(Cl)C1(Cl)C5(Cl)C24Cl` (stereo unspecified) as the compound, how does the outcome read?
**A.** inactive

**Q.** For `Oc1ccc2ccc3cccc4ccc1c2c34`, which AC50 is on record?
**A.** inconclusive: 50000 nM

**Q.** For `CCCCC(CC)COP(=O)(Oc1ccccc1)Oc1ccccc1` (stereo unspecified), which AC50 is on record?
**A.** inconclusive: 5000 nM

**Q.** For `O=[N+]([O-])c1cc(C(F)(F)F)c(Cl)c([N+](=O)[O-])c1Nc1ncc(C(F)(F)F)cc1Cl`, which AC50 is on record?
**A.** inconclusive: 500 nM

**Q.** With `CC(C)(C)c1ccc(CSc2cnn(C(C)(C)C)c(=O)c2Cl)cc1` as the compound, how does the outcome read?
**A.** inactive

Biological target: Luciferin 4-monooxygenase (Photinus pyralis) (UniProt P08659)
Test: CCTE_Simmons_QuantiLum_inhib_2: CCTE's Firefly Luciferase Inhibition Assay, Simmons Lab (AID 2283767);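 note: potency for inhibitors that lower luciferase luminescence relative to DMSO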
Outline: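 Cell-free QuantiLum luciferase, 5 ng/well; compounds 5 nM–87.5 uM final, 8 conc, 0.5% DMSO; 30 min, 37C, dark. Detection reagent (150 uM D-luciferin, 147 uM dATP, CoA, DTT, pH 7.8 final) injected per well, kinetic luminescence. Triplicate biological replicates.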

**Q.** Which AC50 does the source give for `CC(C)N(C(=O)COc1nnc(C(F)(F)F)s1)c1ccc(F)cc1` here?
**A.** inconclusive: 1.06 nM

**Q.** Which AC50 does the source give for `CC(C)(C)c1cc(O)ccc1O` here?
**A.** inconclusive: 11.2 nM

**Q.** For `Clc1ccc(C2(Cn3cncn3)CC(Br)CO2)c(Cl)c1` (stereo unspecified), which AC50 is on record?
**A.** inconclusive: 3370 nM

**Q.** For `O=C(O)C(Cl)(Cl)Cl`, which AC50 is on record?
**A.** inconclusive: 32.9 nM

**Q.** Which AC50 does the source give for `OC(c1ccc(Cl)cc1)(c1ccc(Cl)cc1)C(Cl)(Cl)Cl` here?
**A.** inconclusive: 0.659 nM

Tested on: chicken Androgen Receptor (AR), gene 422165
Test: ATG_chAR_XSP1: Attagene TRANS-FACTORIAL Multi-Species (XSP1) HepG2 Assay for chicken Androgen Receptor (AR) (AID 2283768)
Outline: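 Reporter mRNA read by RT-PCR with fluorescent labelling and capillary electrophoresis 24 h after chemical dosing of transiently transfected HepG2 cells. Chicken AR-Gal4 chimera, partially stimulated with 3 nM 6-alpha-fluorotestosterone; activity fitted upward relative to DMSO.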

**Q.** With `CC1(C)CCC(Cc2ccc(Cl)cc2)C1(O)Cn1cncn1` (stereo unspecified) as the compound, how does the AC50 read?
**A.** inconclusive: 57600 nM

**Q.** Which AC50 does the source give for `CC(C)(C)c1cc(O)ccc1O` here?
**A.** inconclusive: 59400 nM

**Q.** Which AC50 does the source give for `Oc1ccc(C(c2ccc(O)cc2)(C(F)(F)F)C(F)(F)F)cc1` here?
**A.** inconclusive: 58000 nM

**Q.** And the outcome?
**A.** inactive

**Q.** With `COP(=S)(OC)Oc1nc(Cl)c(Cl)cc1Cl` as the compound, how does the AC50 read?
**A.** active: 3310 nM

**Q.** For `CCCN(CCC)c1c([N+](=O)[O-])cc(S(N)(=O)=O)cc1[N+](=O)[O-]`, which AC50 is on record?
**A.** active: 59500 nM

**Q.** Which AC50 does the source give for `Clc1ccc(C(c2ccccc2Cl)C(Cl)(Cl)Cl)cc1` (stereo unspecified) here?
**A.** inconclusive: 10000 nM

**Q.** With `CC(C)Oc1cc(-n2nc(C(C)(C)C)oc2=O)c(Cl)cc1Cl` as the compound, how does the AC50 read?
**A.** active: 18000 nM

**Q.** For `C[C@]12CCC(=O)C=C1CC[C@@H]1[C@@H]2CC[C@@]2(C)[C@H]1CC[C@]2(C)O`, which AC50 is on record?
**A.** active: 0.449 nM

**Q.** Which outcome does the source give for `Cc1c(COC(=O)[C@@H]2[C@H](/C=C(\Cl)C(F)(F)F)C2(C)C)cccc1-c1ccccc1` here?
**A.** inactive

**Q.** What does the source list for `C[C@]12CCC(=O)C=C1CC[C@@H]1[C@@H]2CC[C@]2(C)C(=O)CC[C@@H]12`?
**A.** AC50: active: 53.5 nM; outcome: inactive

**Q.** Which AC50 does the source give for `CC1(C)CCC(=Cc2ccc(Cl)cc2)C1(O)Cn1cncn1` (stereo unspecified) here?
**A.** inconclusive: 30800 nM

**Q.** Which AC50 does the source give for `Oc1cc(Cl)ccc1Oc1ccc(Cl)cc1Cl` here?
**A.** inconclusive: 11100 nM

**Q.** With `CC12CC1(C)C(=O)N(c1cc(Cl)cc(Cl)c1)C2=O` (stereo unspecified) as the compound, how does the AC50 read?
**A.** inconclusive: 1550 nM

**Q.** With `COc1ccc(C(c2ccc(OC)cc2)C(Cl)(Cl)Cl)cc1` as the compound, how does the AC50 read?
**A.** inconclusive: 9950 nM

**Q.** With `CC(C)(C)c1ccc(CSc2cnn(C(C)(C)C)c(=O)c2Cl)cc1` as the compound, how does the outcome read?
**A.** inactive

— PubChem BioAssay (EPA / NIEHS)
